Source: PubChem BioAssay AID2685 (National Center for Advancing Translational Sciences (NCATS), 2010)
The other results are listed elsewhere or left out. The main result of the screen is listed elsewhere. These columns were measured beside it and carry no call. Compounds called inactive in the main read-out are mostly missing here. The note in brackets gives the kind of curve behind each potency; many fits are weak.

Experiment: qHTS Assay for Lipid Storage Modulators in Drosophila S3 Cells;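 as to cell number change: cells counted by Cell Tracker Red CMTPX staining in the red channel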
Settings: BODIPY lipid droplet fluorescence, 18-24 h; for cell number change: measured here: cell count max response, cells fed with added oleic acid
How it was run: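 Drosophila S3 cells loaded with oleic acid (400 uM, as added) and compounds at several concentrations; lipid droplets imaged by 488-nm laser-scanning cytometry, 500–530 nm intensity and object ratio to cell channel. Percent activity normalized to 20 uM Triacsin C.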

[1] = measured here: cell number channel AC50, cells fed with added oleic acid
[2] = measured here: lipid fluorescence (Fed channel) AC50, cells fed with added oleic acid

Structure (SMILES) | cell number change [%] | AC50 [1] | AC50 [2]
O=S(=O)(Nc1ccc(N2CCOCC2)cc1)c1ccc2ccccc2c1 | -93.5 | 0.146 µM [falling, full curve, poor fit] | 0.82 µM [falling, partial curve]
COc1ccc(C(C)NC(=O)C23CC4CC(CC(C4)C2)C3)cc1OC (stereo not given) | -1.09 | – | –
CC1Cc2ccccc2N1C(=O)CSc1nc2c(c(=O)n(C)c(=O)n2C)n1Cc1ccccc1 (stereo not given) | – | 0.058 µM [rising, partial curve] | 2.31 µM [rising, full curve]
O=C(CS(=O)c1ccc(C(F)(F)F)cc1[N+](=O)[O-])Oc1ccc(Cl)cc1 (stereo not given) | -26.6 | – | –
Cc1ccc(C(=O)OCC(=O)NCc2ccc(F)cc2)o1 | -13.9 | – | 29.1 µM [falling, single point]
Cc1ccc(CNC(=O)CN(C(=O)N2CCN(C)CC2)S(=O)(=O)c2ccc(C)cc2)cc1 | -75 | 1.64 µM [falling, partial curve] | –
COc1ccc(S(=O)(=O)N(NC2=NS(=O)(=O)c3ccccc32)C(=O)C(C)C)cc1 | – | 0.00461 µM [falling, full curve, poor fit] | –
COc1ccc(C(=O)NNC(=O)Cc2ccc(-c3ccccc3)cc2)cc1OC | 17.3 | – | –
N#Cc1ccsc1NC(=O)C1CCCN1S(=O)(=O)c1cccs1 (stereo not given) | -69.1 | 29.1 µM [falling, single point] | –
CN(C)c1nc(Cl)nc(N(C#N)CCOc2ccccc2)n1 | 23 | 2.59 µM [rising, full curve, poor fit] | 4.61 µM [rising, full curve, poor fit]
CCn1cc(-c2ccccc2)c(C(=O)O)c1-c1ccc(OC)cc1 | -11 | – | 0.461 µM [falling, partial curve, poor fit]
Cc1cc(C)n2nc(/C(C#N)=C/c3ccccn3)c(C#N)c2n1 | 10.7 | 6.51 µM [rising, single point] | 6.51 µM [rising, single point]
O=C(CCCn1c(=S)[nH]c2ccccc2c1=O)N1CCN(c2cccc(Cl)c2)CC1 | 10.8 | – | 32.6 µM [falling, single point]
CCc1cccc(NC(=S)Nc2cccc3ccccc23)c1 | 48.9 | 16.4 µM [rising, partial curve, poor fit] | 18.4 µM [rising, single point]
CC(=O)Nc1ccc(NC(=O)CCSCCc2ccccn2)cc1 | -36.9 | – | –
COc1ccc(NC(=O)Cn2c(=O)n(CC3CCCO3)c(=O)c3cc(OC)c(OC)cc32)cc1OC (stereo not given) | 16.8 | – | 29.1 µM [rising, single point]
CNS(=O)(=O)c1cc(O)c2c(S(=O)(=O)NC)cccc2c1 | 4.74 | – | 18.4 µM [falling, partial curve]
O=C(NCc1cccnc1)c1ccc(COc2ccccc2Br)o1 | – | – | 4.11 µM [rising, partial curve]
N#Cc1ccc(COC(=O)c2cnc3ccccc3n2)cc1 | – | – | 29.1 µM [rising, single point]
Cn1ccnc1SCC(=O)NC1(C#N)CCCCC1 | 0.5 | – | –

Structures shown so far that have fluorine, in the order listed:
Structure (SMILES) | cell number change [%] | AC50 [1] | AC50 [2]
O=C(CS(=O)c1ccc(C(F)(F)F)cc1[N+](=O)[O-])Oc1ccc(Cl)cc1 (stereo not given) | -26.6 | – | –
Cc1ccc(C(=O)OCC(=O)NCc2ccc(F)cc2)o1 | -13.9 | – | 29.1 µM [falling, single point]

Remaining list, next part:

Structure (SMILES) | cell number change [%] | AC50 [1] | AC50 [2]
Cc1ccc(N2C(=O)c3cccc4c(Oc5ccccc5[N+](=O)[O-])ccc(c34)C2=O)c(C)c1 | -28.6 | – | 18.4 µM [rising, single point]
COC(=O)c1c(-c2ccc(Br)cc2)csc1NC(=O)Cc1ccc(OC)c(OC)c1 | -14.6 | – | 4.61 µM [rising, partial curve]
O=C(c1ccccc1)N1CCN(C(=S)NCc2ccc3c(c2)OCO3)CC1 | 19.7 | – | 0.259 µM [rising, full curve, poor fit]
O=C(NCc1ccccc1)C(Cc1ccccc1)NS(=O)(=O)c1cccc2nsnc12 (stereo not given) | – | – | 0.103 µM [rising, full curve, poor fit]
O=C(Nc1ccc(Oc2ccc(NC(=O)C3CCCO3)cc2)cc1)C1CCCO1 (stereo not given) | 4.33 | – | –
Cc1ccsc1C(=O)NCCc1c[nH]c2ccccc12 | 19.9 | – | 1.3 µM [rising, partial curve, poor fit]
Cc1ccc(C(=O)Nc2cccc(Oc3ccccc3)c2)o1 | 127 | 5.17 µM [rising, partial curve] | 2.91 µM [rising, full curve]
O=C(NC(=O)N1CCCCC1)c1ccc(Cl)cc1 | 14.4 | – | 18.4 µM [rising, single point]
Cc1csc(NC(=O)CSc2ncn(-c3ccccc3)n2)n1 | -21 | – | 23.1 µM [falling, single point]
Nc1c(C(=O)N/N=C/c2cccnc2)oc2nc(-c3ccco3)cc(-c3ccco3)c12 | 14.2 | – | 0.651 µM [rising, full curve]
Cc1nc(/C(N)=N/OC(=O)Cc2ccccc2)no1 | 48.4 | 14.6 µM [rising, single point] | 20.6 µM [rising, single point]
N#CC1(c2ccccc2)CCC(NCCc2ccccc2)CC1 (stereo not given) | 15.6 | – | –
COc1ccc(CNC(=O)CN(C(=O)CCC(=O)Nc2ccccn2)c2cccc(C)c2)cc1 | 17.2 | 0.0411 µM [rising, full curve, poor fit] | 4.61 µM [rising, single point]
Cc1cc(C)n(CC(O)Cn2c(C)c(C)c3ccccc32)n1 (stereo not given) | 36.8 | 14.6 µM [rising, partial curve, poor fit] | 3.66 µM [rising, partial curve, poor fit]
CCCn1c(SCC(=O)NC(=O)NC(C)(C)C)n[nH]c1=O | 32.4 | 16.4 µM [rising, single point] | –
O=C(COC(=O)C1CCC(N2C(=O)C3C4CCC(C4)C3C2=O)CC1)c1ccc(F)cc1 (stereo not given) | – | – | 16.4 µM [falling, partial curve, poor fit]
CCCCNC(=O)CCn1c(=O)c2ccccc2n(CC(=O)N2CC(C)CC(C)C2)c1=O (stereo not given) | 24.8 | 2.91 µM [rising, single point] | 6.51 µM [rising, single point]
O=C(Cc1cccs1)Nc1ccccc1-c1nc2ccccc2[nH]1 | -5.33 | – | 29.1 µM [falling, single point]
CCCOc1ccc(/C=C/C(=O)NC2CCCCC2)cc1 | -22.6 | – | 0.206 µM [falling, full curve, poor fit]
Cc1ccn2c(NCc3ccc4c(c3)OCO4)c(-c3ccc(O)cc3)nc2c1 | 72.9 | 29.1 µM [rising, single point] | –

Structure (SMILES) | cell number change [%] | AC50 [1] | AC50 [2]
O=C(Nc1cc([N+](=O)[O-])ccc1N1CCCC1)c1ccco1 | – | 0.92 µM [rising, partial curve] | 6.51 µM [falling, single point]
C=CCN(C(=O)c1cccc(S(=O)(=O)N2CCN(C)CC2)c1)c1nc(-c2ccccc2)cs1 | -35.5 | 29.1 µM [falling, single point] | –
CCOc1ccc(C(=O)Nc2ccc(NC(=O)c3ccccc3)c(C)c2)cc1[N+](=O)[O-] | -17.9 | – | 0.259 µM [falling, full curve]
O=C(NC1CCCCC1)C(c1ccccc1F)N(Cc1ccco1)C(=O)c1ccccn1 (stereo not given) | 13.4 | – | –
CCCn1c(SCC(=O)NC(C)c2ccccc2)n[nH]c1=O (stereo not given) | 43.2 | 29.1 µM [rising, single point] | 20.6 µM [rising, single point]
O=C1CC(=O)C(n2cncn2)C(c2ccc(Cl)cc2)C1 (stereo not given) | -70.8 | 23.1 µM [falling, partial curve, poor fit] | –
COc1ccc(CNCC(O)COc2ccc(C(C)(C)c3ccccc3)cc2)cc1 (stereo not given) | -64.6 | 14.6 µM [falling, partial curve] | 16.4 µM [falling, partial curve]
Cc1ccc(OCC(=O)Nc2ccc(NC(=O)c3cccs3)cc2)c(C)c1 | -25.4 | – | 23.1 µM [falling, single point]
CC1=CCC2(CO)COC(c3ccccc3O)C1C2 (stereo not given) | -2.36 | – | 0.058 µM [falling, full curve]
Cc1cc(NC(=O)Cc2cn3ccsc3n2)n(-c2ccccc2)n1 | 48.7 | 7.31 µM [falling, partial curve, poor fit] | –
CCOC(=O)C1CCN(S(=O)(=O)c2cnc[nH]2)CC1 | -9.33 | – | 0.731 µM [falling, single point]
Cc1ccc(OCCn2cnc3c(N)ncnc32)cc1 | 16.5 | – | 16.4 µM [rising, partial curve, poor fit]
O=C(Nc1ccc(Nc2ccccc2)cc1)c1ccc(Cl)c([N+](=O)[O-])c1 | -38.5 | 20.6 µM [falling, single point] | –
COCc1c(C(=O)N/N=C(/C)c2ccccc2)nnn1-c1nonc1N | 19.4 | – | –
CCOc1cc(N2CCOCC2)c(OCC)cc1NC(=O)Cc1cccc2ccccc12 | 18 | 0.291 µM [rising, partial curve] | 1.64 µM [rising, partial curve]
CCOc1ccc(Nc2cc(C)c3ccccc3n2)cc1 | – | 0.651 µM [rising, partial curve] | 6.51 µM [rising, single point]
COc1ccc(CCNC(=O)CC2Nc3ccccc3NC2=O)cc1 (stereo not given) | 2.52 | – | –
c1ccc(-c2noc(-c3cccnc3)n2)cc1 | 48 | 29.1 µM [rising, single point] | –
CC(=O)N1c2ccccc2[C@H](C)[C@H]1C | -27 | – | 29.1 µM [falling, single point]

Limited to AC50 [1] and cell number change [%], for some of the entries so far:
Structure (SMILES)	AC50 [1]	cell number change [%]
O=C(Nc1cc([N+](=O)[O-])ccc1N1CCCC1)c1ccco1	0.92 µM [rising, partial curve]	–
CCCn1c(SCC(=O)NC(C)c2ccccc2)n[nH]c1=O (stereo not given)	29.1 µM [rising, single point]	43.2
